PubChem BioAssay AID1259425 | University of Nebraska Medical Center – 2018

Purpose: 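Find knockdowns that reproduce the gene expression pattern seen when KSR1 is lost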 (primary screen)
Cells: HCT116 human colon cancer cells
Reagent: siRNA pool against human genes, 50 nM siRNA
Detection: 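mRNA of six signature genes measured together by branched-DNA assay after 50 nM siRNA pool, blank removed, divided by geometric mean of two housekeeping genes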
Reading the numbers: BNIP3L mRNA: higher = more BNIP3L transcript after knockdown; NDRG1 mRNA: higher = more NDRG1 transcript after knockdown; BNIP3 mRNA: higher = more BNIP3 transcript after knockdown; ALDOC mRNA: higher = more ALDOC transcript after knockdown
This is a random part of about 14,000 reagents tested. Not all columns of the deposit are shown. No sequences are given here. Not given: the time to read-out.

Target gene | BNIP3L mRNA, set 1 | NDRG1 mRNA, set 1 | BNIP3 mRNA, set 1 | ALDOC mRNA, set 1
PREB | 0.102 | 0.0987 | 0.244 | 0.0169
ZIC5 | 0.0747 | 0.318 | 0.252 | 0.0368
VPS45 | 0.198 | 0.132 | 0.305 | 0.0312
RNF186 | 0.106 | 0.0835 | 0.156 | 0.0168
GPC1 | 0.0262 | 0.113 | 0.276 | 0.0356
UTRN | 0.13 | 0.217 | 0.512 | 0.0358
TACR1 | 0.0925 | 0.0683 | 0.273 | 0.038
GPR50 | 0.118 | 0.215 | 0.265 | 0.0492
AHRR | 0.0215 | 0.127 | 0.158 | 0.00741
SAMM50 | 0.144 | 0.244 | 0.355 | 0.0253
ACOT2 | 0.0665 | 0.291 | 0.425 | 0.00744
ALDOB | 0.128 | 0.155 | 0.294 | 0.0339
SH3YL1 | 0.121 | 0.197 | 0.218 | 0.0246

Limited to “ALDOC mRNA, set 1” (6 entries from above):
GPR50	0.0492
AHRR	0.00741
SAMM50	0.0253
ACOT2	0.00744
ALDOB	0.0339
SH3YL1	0.0246

Additional records:
Target gene | BNIP3L mRNA, set 1 | NDRG1 mRNA, set 1 | BNIP3 mRNA, set 1 | ALDOC mRNA, set 1
EIF2B4 | 0.125 | 0.404 | 0.162 | -0.013
SACS | 0.157 | 0.162 | 0.313 | 0.0155
HBA2 | 0.169 | 0.229 | 0.446 | 0.0262
H3C3 | 0.0825 | 0.257 | 0.332 | 0.0226
IL1A | 0.0263 | 0.146 | 0.15 | 0.0111
NAPA | 1.85 | 1.79 | 2.08 | 0.0179
KIAA0930 | 0.11 | 0.133 | 0.269 | 0.0384
PEX10 | 0.1 | 0.153 | 0.211 | 0.0278
KNG1 | 0.0963 | 0.416 | 0.27 | 0.0105
TCEAL4 | 0.113 | 0.16 | 0.182 | 0.047
KDM3B | 0.135 | 0.44 | 0.4 | 0.0222
SLC25A32 | 0.0686 | 0.173 | 0.266 | 0.0306
MRPL13 | 0.127 | 0.258 | 0.323 | 0.0173
PDK4 | 0.11 | 0.128 | 0.406 | 0.0127
GAB3 | 0.0939 | 0.141 | 0.164 | 0.0213
KAT6B | 0.112 | 0.252 | 0.419 | 0.0411
BUD31 | 0.0934 | 0.119 | 0.234 | 0.0238
CAPG | 0.149 | 0.0826 | 0.519 | 0.034
GJC2 | 0.0816 | 0.289 | 0.308 | 0.0208
MEPE | 0.0998 | 0.217 | 0.261 | 0.0125
SLC34A2 | 0.146 | 0.354 | 0.377 | 0.029
